Measured values as given in patent US20240059676A1, “THYROID HORMONE RECEPTOR b SELECTIVE AGONIST COMPOUND, PHARMACEUTICAL COMPOSITION AND USE THEREOF” (SHANGHAI INSTITUTE OF MATERIA MEDICA, CHINESE ACADEMY OF …, priority 2020, published 2024).
At least one compound was matched to its structure with a doubt left. Some entries repeat one wording, which the source may state once for all of them.

By UniProt entry, the sequences of proteins in these tests, tags left out. Where a name states a change or a piece, a line headed by the entry shows the natural chain unless it says otherwise.
UniProt P10828: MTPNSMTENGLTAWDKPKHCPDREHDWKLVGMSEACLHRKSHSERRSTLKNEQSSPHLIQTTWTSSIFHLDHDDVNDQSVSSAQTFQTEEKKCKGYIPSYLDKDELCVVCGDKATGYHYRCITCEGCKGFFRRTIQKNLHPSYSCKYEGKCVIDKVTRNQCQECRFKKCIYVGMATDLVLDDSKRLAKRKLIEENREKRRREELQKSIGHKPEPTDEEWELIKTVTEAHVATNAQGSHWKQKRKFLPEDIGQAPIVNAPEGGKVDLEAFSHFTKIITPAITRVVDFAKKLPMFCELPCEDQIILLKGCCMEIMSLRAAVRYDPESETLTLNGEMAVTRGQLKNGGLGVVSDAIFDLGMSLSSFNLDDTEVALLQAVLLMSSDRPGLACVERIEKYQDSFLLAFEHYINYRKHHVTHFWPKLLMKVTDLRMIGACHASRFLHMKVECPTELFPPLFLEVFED

These molecules were tested against human THRβ (Homo sapiens (Human), UniProt P10828) (assay: THR reporter gene method, agonistic activity on THRβ (Huh7 cells, PGL4.26-DR4-Luc)). Conditions: THR reporter gene assay, summary in words.
Type: cell-based
Experimental: Huh7 cells were cultured in a DMEM medium supplemented with 10% FBS. The cells were inoculated into a 10 cm cell culture dish, proliferated to about 90% confluency, and co-transfected by using a liposome (Lipofectamine 2000) with human THR^a eukaryotic expression plasmid or human THRβ eukaryotic expression plasmid, as well as reporter gene plasmid PGL4.26-DR4-Luc containing THR response sequence driver. The operation steps were carried out according to the instructions of Lipofectamine 2000. The next day after transfection, the cells were inoculated with a phenol red-free DMEM (supplemented with 5% activated carbon-treated FBS) into a 96-well cell culture plate at a seeding density of 20,000 cells per well and a volume of 135 μL per well. The cells adhered to wall 6 hours after the inoculation. Compounds dissolved in DMSO were diluted in phenol red-free DMEM (supplemented with 5% activated carbon-treated FBS) to be […] of the final concentration, and added to the cell wells at 15 μL per well, that is, the compounds were diluted 10 times again to reach the final concentration. Triiodothyronine T3 (100 nM) was set as a positive control, and 0.5% DMSO was set as a blank control. After the compounds were added, the cells were cultured at 37° C. in a 5% CO2 incubator overnight (16 hours). After incubation, the culture medium was discarded, and each well was added with 35 μL of serum-free and phenol red-free DMEM and 35 μL of Steady-Glo, shaked for 10 minutes in the dark, and the chemiluminescence value of the sample was detected.
The agonistic activity of the compound was calculated as follows: % effect=(compound−blank control)/(positive control−blank control)×100%. The EC50 of the compound was obtained by fitting the agonistic activity of the compound and the logarithmic value of the compound concentration with GraphPad Prism. The lower the EC50 value, the better the activity.
The EC50 values of agonistic activities of compounds on THR^a and THRβ were firstly corrected by the EC50 values of agonistic activities of T3 on THR^a and THRβ in the same experiment, and then the multiple, that is, receptor selectivity were calculated based on the obtained values. The specific calculation method is as follows: Selectivity=(EC50 of compound on THRα/EC50 of T3 on THRα)/(EC50 of compound on THRβ/EC50 of T3 on THRβ).

Structure (SMILES) | Activity or selectivity compared with the positive control (MGL-3196)
Cn1c(=O)ccc2c1ccn2-c1c(Cl)cc(-n2nc(C#N)c(=O)[nH]c2=O)cc1Cl [ZB-H-25] | significantly higher activity or selectivity than the positive control
CC(C)n1c(=O)ccc2c1ccn2-c1c(Cl)cc(-n2nc(C#N)c(=O)[nH]c2=O)cc1Cl [ZB-H-26] | significantly higher activity or selectivity than the positive control
N#Cc1nn(-c2cc(Cl)c(-n3ccc4c3ccc(=O)n4C3CC3)c(Cl)c2)c(=O)[nH]c1=O [ZB-H-33] | significantly higher activity or selectivity than the positive control
N#Cc1nn(-c2cc(Cl)c(-n3ccc4c3ccc(=O)n4C3CCCCC3)c(Cl)c2)c(=O)[nH]c1=O [ZB-H-38] | significantly higher activity or selectivity than the positive control
